PubChem BioAssay AID1671190 (National Center for Advancing Translational Sciences (NCATS), 2021)
Out of some 580,000 compounds screened, about 6,100 (1.1%) were called active. The shares of active, inactive and inconclusive entries below differ from those in the screen. Calls follow the shape of the dose curve; as a rule, active = well fitted inhibition curve with a large enough effect; inconclusive = small, poorly fitted or top-dose-only effect, or another doubt; inactive = no such curve, though single readings can be large or run the other way. Where the call is inconclusive, the potency comes from a doubtful curve fit.

Protein sequences, listed by entry. Tags and fused reporters are not part of them. Lines headed by an entry give the natural chain unless they say otherwise; changes in a name come on top.
UniProt P18054: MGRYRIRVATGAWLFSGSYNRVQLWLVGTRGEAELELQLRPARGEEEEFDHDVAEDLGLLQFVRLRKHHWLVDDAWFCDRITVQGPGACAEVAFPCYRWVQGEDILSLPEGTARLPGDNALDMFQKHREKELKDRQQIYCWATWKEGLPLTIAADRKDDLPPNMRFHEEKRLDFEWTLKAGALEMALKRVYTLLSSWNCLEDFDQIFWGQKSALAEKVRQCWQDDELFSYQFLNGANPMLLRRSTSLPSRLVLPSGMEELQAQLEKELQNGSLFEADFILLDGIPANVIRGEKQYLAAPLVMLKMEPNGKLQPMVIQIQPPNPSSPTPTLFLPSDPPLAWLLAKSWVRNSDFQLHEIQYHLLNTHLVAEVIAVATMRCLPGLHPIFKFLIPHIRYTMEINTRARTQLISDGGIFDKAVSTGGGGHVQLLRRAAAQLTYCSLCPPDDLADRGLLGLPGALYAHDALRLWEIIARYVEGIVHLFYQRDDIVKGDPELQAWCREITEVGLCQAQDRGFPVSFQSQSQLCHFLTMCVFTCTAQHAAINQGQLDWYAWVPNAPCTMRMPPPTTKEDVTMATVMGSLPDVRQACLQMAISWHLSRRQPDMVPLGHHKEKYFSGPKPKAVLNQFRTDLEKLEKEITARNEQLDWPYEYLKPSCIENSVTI

What follows are molecules tested against Polyunsaturated fatty acid lipoxygenase ALOX12 (Homo sapiens) (UniProt P18054) (assay: Primary qHTS assay for inhibitors of human arachidonate 12S-lipoxygenase (ALOX12): Round 2). Conditions: purified 12hLO, xylenol orange hydroperoxide absorbance; series mostly up to 108 µM.
Summary of the method: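 Hydroperoxide product was detected by ferrous iron/xylenol orange as the 573 to 405 nm absorbance ratio. Arachidonic acid at 40 uM (final) was turned over for 30 min at room temperature by 150 nM human 12hLO, pH 7.0 Hepes buffer, after 15 min compound preincubation.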
Potency is read from the fitted curve at half-maximal effect.

SMILES | Potency
Cc1ccc2[nH]c(=O)c(CN(Cc3ccc4c(c3)OCO4)Cc3nnnn3Cc3ccco3)cc2c1 | inconclusive: 44.7 µM [inhibitor, partial curve, poor fit]
Oc1ccc(Oc2ccc3nnc(-c4ccccc4Cl)n3n2)cc1 | inconclusive: 2 µM [inhibitor, full curve, poor fit]
O=S(=O)(N[C@H]1C[C@@H](NS(=O)(=O)OCC(Cl)(Cl)Cl)C2CCCCC21)OCC(Cl)(Cl)Cl (stereo not given in full) | inconclusive: 35.5 µM [inhibitor, partial curve]
Cc1cc(C)c(CNC(=O)c2cc(-c3ccnn3C)cc3c2OCCN3C)c(=O)[nH]1 | inactive
COc1ccc(NC(=S)NC(=O)c2cc3ccccc3o2)c(OC)c1 | inconclusive: 31.6 µM [inhibitor, partial curve, poor fit]
COc1ccc(C(c2nnnn2Cc2ccccc2)N2CCN(C/C=C/c3ccccc3)CC2)cc1 (stereo not given) | inconclusive: 89.1 µM [inhibitor, partial curve, poor fit]
O=[N+]([O-])c1cccc(N/N=C/c2cc([N+](=O)[O-])ccc2O)c1 | inconclusive: 44.7 µM [inhibitor, partial curve, poor fit]
O=C(Cc1ccc2c(c1)OCO2)N1CCc2onc(-c3cccc(F)c3)c2C1 | inconclusive: 79.4 µM [inhibitor, single point]
COc1ccc(C)cc1-n1nnnc1SCC(=O)NCCc1ccccc1 | inactive
CCOc1ccccc1C(=O)N1CCCn2ccnc2C1CC (stereo not given) | inactive
CCOc1ccc(-c2ccc(NS(=O)(=O)c3ccc(C)cc3)cc2)nn1 | inconclusive: 63.1 µM [inhibitor, partial curve, poor fit]
Cc1cc(CS(=O)(=O)Cc2ccc(Cl)cc2)on1 | inactive
CC(C)(C)c1cc(C(=O)Nc2ccc(F)cc2)n(Cc2ccc(F)cc2)n1 | inactive
Cc1ccc2oc(-c3ccc(NC(=O)c4ccc5c(c4)OCO5)cc3)nc2c1 | inconclusive: 89.1 µM [inhibitor, partial curve, poor fit]
CNC(=O)C(=O)NCC1CCCN1S(=O)(=O)c1cccs1 (stereo not given) | inconclusive: 141 µM [inhibitor, partial curve, poor fit]
O=S(=O)(c1ccc2ccccc2c1)N1CCN(C2Cc3ccccc3C2)CC1 | inactive
C=C(C)Cn1c(NCCOC)nc2c1c(=O)[nH]c(=O)n2C | inconclusive: 0.355 µM [inhibitor, full curve, poor fit]
Cc1ccc(NC(=O)C(Cc2ccccc2)n2cnnn2)cc1F (stereo not given) | inconclusive: 79.4 µM [inhibitor, partial curve, poor fit]
Cc1cnc(CNc2cc(-c3ccc(C(=O)N(C)C)cc3)ncn2)cn1 | inconclusive: 6.31 µM [inhibitor, full curve, poor fit]
COc1cccc2sc(N(CCCN(C)C)C(=O)COc3ccc(Cl)cc3)nc12 | inconclusive: 50.1 µM [inhibitor, partial curve, poor fit]
CC(Nc1ccc(Cl)cc1)c1cc(Cl)ccc1O (stereo not given) | inconclusive: 112 µM [inhibitor, single point]
O=C(NC1CCCCC1)C(c1ccnc2ccccc12)n1c(=O)c(-c2cc3ccccc3[nH]2)nc2ccccc21 (stereo not given) | inconclusive: 100 µM [inhibitor, single point]

SMILES | Potency
COc1cccc(-n2c(=O)c3ccccc3n3c(=S)[nH]nc23)c1 | inconclusive: 56.2 µM [inhibitor, partial curve, poor fit]
O=C(O)Cc1ccc(C(=O)c2ccccc2)s1 | inconclusive: 14.1 µM [inhibitor, partial curve, poor fit]
Cc1ccc(C)c(N2CCN(CCCNC(=O)c3cnn(-c4ccccc4Cl)c3C3CCN(C(=O)OC(C)(C)C)CC3)CC2)c1 | inconclusive: 44.7 µM [inhibitor, partial curve, poor fit]
CCC(CO)Oc1cc(NC(=O)c2ccccc2F)c2ncn(C(C)C)c2c1 (stereo not given) | active: 28.2 µM
Cc1cc(=O)[nH]c(SCC(=O)Nc2ccc(Br)cc2)c1C#N | inconclusive: 112 µM [inhibitor, single point]
Cc1ccc(Cl)cc1N1CCN(Cc2nc3c(c(=O)[nH]c(=O)n3C)n2Cc2ccccc2F)CC1 | inactive
Cc1cc(N2CCC(NC(=O)c3ccc4[nH]ccc4c3)C2=O)ccc1F (stereo not given) | inactive
OC1(c2cccc(C(F)(F)F)c2)CCN(Cc2nc(-c3cccs3)no2)CC1 | inactive
Cc1nc2c(cc(Oc3cnccn3)c3ccsc32)s1 | inconclusive: 112 µM [inhibitor, single point]
Cc1ccc(C(=O)Nc2ccc(NC(=O)c3cccs3)cc2)cc1C | inconclusive: 7.94 µM [inhibitor, full curve, poor fit]
Cc1noc(C)c1S(=O)(=O)NCC1(COc2cnccn2)C[C@@H](O)[C@@H](O)C1 (stereo not given in full) | inconclusive: 12.6 µM [inhibitor, full curve]
Cc1c[nH]c(C=C2C(=O)Nc3ccccc32)c1CCC(=O)O | inconclusive: 21.7 µM [inhibitor, partial curve]
CC1CCN(C(=S)c2ccc(-c3ccc(Cl)cc3Cl)o2)CC1 | inconclusive: 39.8 µM [inhibitor, partial curve, poor fit]
CN(C)C(=O)COC(=O)c1ccccc1-c1nc2ccccc2s1 | inactive
Cc1cccc(NC(=S)NN2CCN(C)CC2)c1C | inconclusive: 2.24 µM [inhibitor, full curve, poor fit]
Cc1ccc2cc(CCNC(=O)C(C)C)c(=O)[nH]c2c1C | inconclusive: 112 µM [inhibitor, single point]
CCCCCn1c(SCCc2ccccc2)nc2c1c(=O)[nH]c(=O)n2C | inactive
CC1CCCCN1C(=O)COC(=O)C1CCN(S(=O)(=O)c2c(Cl)cccc2Cl)CC1 (stereo not given) | inactive
CC(=O)c1c(C)[nH]c(C(=O)/C(C#N)=C\c2ccc(F)cc2)c1C | active: 35.5 µM
CCOc1ccc(C2C(C(=O)c3cccs3)=C(O)C(=O)N2CCN2CCOCC2)cc1 (stereo not given) | inconclusive: 100 µM [inhibitor, single point]
CSc1ccc(S(=O)(=O)N2CCC(C(=O)NCC3CCCO3)CC2)cc1 (stereo not given) | inconclusive: 79.4 µM [inhibitor, partial curve, poor fit]
Cc1nc(CNCc2cccc(NC(=O)c3cccc(F)c3)c2)cs1 | inconclusive: 6.31 µM [inhibitor, partial curve, poor fit]

SMILES | Potency
CN(Cc1cccs1)C(=O)Cn1cnc2cc([N+](=O)[O-])ccc2c1=O | inconclusive: 44.7 µM [inhibitor, partial curve, poor fit]
CC(=O)Nc1cc(-c2cccc(C(=O)NCCN(C)C)c2)cn2c(-c3cccc(C(F)(F)F)c3)cnc12 | inactive
CCOc1ccc(/C=C/c2nc(C#N)c(N3CCN(C(=O)c4ccco4)CC3)o2)cc1 | inconclusive: 126 µM [inhibitor, single point]
O=c1c2cc([N+](=O)[O-])ccc2ncn1Cc1coc(-c2cccs2)n1 | inconclusive: 112 µM [inhibitor, single point]
O=S(=O)(Nc1c(S(=O)(=O)c2ccccc2)c2nc3ccccc3nc2n1C1CCCCC1)c1ccccc1 | active: 39.8 µM
CC(C)Cn1c(N)c(-c2csc(Nc3ccc(Cl)cc3)n2)c(=O)n(C)c1=O | inconclusive: 17.8 µM [inhibitor, full curve, poor fit]
CNC(=O)CCn1ncc2cc(OCc3ccccc3-c3ccccc3OC)ccc21 | inconclusive: 50.1 µM [inhibitor, partial curve]
O=C1c2ccccc2C(=Cc2ccc(Cl)cc2)c2ccccc21 | inconclusive: 39.8 µM [inhibitor, partial curve, poor fit]
Cc1c(Cc2ccccc2)c(=O)oc2cc(OS(C)(=O)=O)ccc12 | inconclusive: 35.5 µM [inhibitor, partial curve, poor fit]
CC(=O)Nc1ccc(NC(=O)c2ccc(COc3ccccc3)cc2)cc1 | inactive
CCc1nc2ccccc2n1CCCCOc1ccc(C)cc1 | inconclusive: 50.1 µM [inhibitor, partial curve, poor fit]
COc1ccc(OCc2cc(=O)c3ccc4c(c3o2)C=CC(C)(C)O4)cc1OC | inconclusive: 89.1 µM [inhibitor, single point]
CCOC(=O)CNC(=O)c1cc(-c2ccccn2)nc2c(C)c(Cl)ccc12 | inactive
COc1cc(C)c(S(=O)(=O)n2c([N+](=O)[O-])cnc2C)cc1C | inconclusive: 50.1 µM [inhibitor, full curve, poor fit]
CC(=O)c1cc(NC(=O)c2ccc(Cl)cc2)c(=O)oc1/C=C/N(C)C | inconclusive: 5.01 µM [inhibitor, full curve, poor fit]
CCOC(=O)CSC1=C(C#N)C(c2ccc(C)o2)CC(=O)N1 (stereo not given) | inconclusive: 39.8 µM [inhibitor, partial curve, poor fit]
FC(F)(F)c1cccc(N/N=C/c2ccccc2)c1 | active: 3.55 µM
CCOc1ccccc1CN1CCN(Cc2ccc(C)o2)C(CCO)C1 (stereo not given) | inactive
Cc1ccc(NC(=O)CSc2ccc3nnc(-c4ccccn4)n3n2)cc1 | inactive
N#CCn1c(Cc2ccccc2)nc2ccccc2c1=O | inconclusive: 44.7 µM [inhibitor, partial curve, poor fit]
CC(C)(O)[C@H]1CC[C@@](C)([C@H]2[C@@H](O)C[C@@]3(C)[C@@H]4C[C@H](O[C@@H]5O[C@H](CO)[C@@H](O)[C@H](O)[C@@H]5O)[C@H]5C(C)(C)[C@@H](O[C@@H]6OC[C@@H](O)[C@H](O)[C@@H]6O)CC[C@@]56C[C@@]46CC[C@]23C)O1 | inactive

2 neighbouring records out of the list so far:
SMILES | Potency
O=S(=O)(Nc1c(S(=O)(=O)c2ccccc2)c2nc3ccccc3nc2n1C1CCCCC1)c1ccccc1 | active: 39.8 µM
CC(C)Cn1c(N)c(-c2csc(Nc3ccc(Cl)cc3)n2)c(=O)n(C)c1=O | inconclusive: 17.8 µM [inhibitor, full curve, poor fit]
